# From PubChem BioAssay AID504648 (National Center for Advancing Translational Sciences (NCATS), 2011)
# Among all 390,000 compounds or so, about 610 (0.16%) were called active. Inconclusive means that the source gave no clear call. Such entries were picked first, then a sample of the others. Calls come from the whole dose curve; as a rule, active = well fitted inhibition curve with a large enough effect; inconclusive = small, poorly fitted or top-dose-only effect, or effect the other way, or another doubt; inactive = no such curve, though single readings can be large or run the other way. A potency beside an inconclusive call is a rough fit, not a confirmed value.
# Assay: Nrf2 qHTS screen for inhibitors: counterscreen for cytotoxicity
# Conditions: A549 ARE-Fluc cells, CellTiter-Fluor viability, 18-24 h; activity change, negative = cytotoxicity: at 46 µM (top of the series)
# In short: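 A549 ARE_Fluc cells in 5% FBS OPTI-MEM were exposed to compounds in concentration-response for 18-24 h at 37 deg C. Viability was read by CellTiter-Fluor fluorescence (Ex 405/Em 525) after 30 min, before the luciferase read.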
# % is set by controls: 0 for no effect and ±100 for the full control effect; potency is the fitted concentration of half-maximal effect.
SMILES,"activity change, negative = cytotoxicity",Potency
Cc1ccc(S(=O)(=O)NCCC(=O)Nc2cccc(Cl)c2)cc1,inactive: -4.1%,–
COc1ccc(Cl)cc1C(=O)Nc1ccc(-c2nnc3n2CCCCC3)cc1,inactive: -13.5%,–
COc1cccc(Cn2c(=O)n(-c3ccccc3C)c(=O)c3c2c2cc(C)ccc2n3C)c1,inactive: -16.2%,–
CC(=O)Nc1cccc(Oc2ncnc3scc(-c4ccc(C)cc4)c23)c1,–,"inconclusive: 20.6 µM [falling, partial curve, poor fit]"
COc1ccc(C2(c3ccc(OC(C)=O)cc3OC(C)=O)CC(c3ccccc3)NC(=S)N2)cc1 (stereo not drawn),–,"inconclusive: 16.4 µM [falling, single point]"
Cc1onc(-c2c(F)cccc2Cl)c1C(=O)N1CCCc2ccccc21,–,"inconclusive: 32.6 µM [falling, partial curve, poor fit]"
CCOc1ccc(C(=O)N/N=C/c2cccc3cccnc23)cc1,–,"inconclusive: 2.91 µM [falling, partial curve, poor fit]"
COc1ccc(C(=O)NCCCn2cccn2)cc1OC1CCN(C(C)=O)CC1,–,"inconclusive: 29.1 µM [falling, single point]"
Cc1cc(C)cc(NC(=O)CSc2oc(-c3cccs3)nc2S(=O)(=O)c2ccccc2)c1,inactive: -1.21%,–
Nc1nc(NCCCN2CCOCC2)nc(NCc2ccccc2)c1[N+](=O)[O-],inactive: 0.869%,–
CSc1ccc(C(=O)C2CCCN(C(=O)c3nn(C)c(=O)c4ccccc34)C2)cc1 (stereo not drawn),inactive: -18.4%,–
COC(=O)[C@]1(Cc2ccccc2)N[C@H](CN(C)C(=O)Nc2ccccc2)[C@@H]2C(=O)N(Cc3ccccc3)C(=O)[C@@H]21,–,"inconclusive: 18.4 µM [falling, partial curve, poor fit]"
Cc1[nH]c2ccccc2c1/C=C(\C#N)C(=O)NCC1CCCO1 (stereo not drawn),–,"inconclusive: 18.4 µM [falling, partial curve, poor fit]"
O=C1CCCC2=C1C1(CCCC1)N=C(Nc1nc3ccccc3s1)N2,inactive: -13.5% [at 1.84 µM],–
CCC(=O)OCCNc1cc(Sc2nccn2C)c2nonc2c1[N+](=O)[O-],–,"inconclusive: 29.1 µM [falling, single point]"
Cn1ncc2ccc(-c3ccc4ncnc(NCc5cccs5)c4c3)cc21,inactive: -2.47%,–
COC(=O)C1C=CC(OC2OC(COC(C)=O)C(OC(C)=O)C(OC(C)=O)C2OC(C)=O)n2c(=O)n(-c3ccccc3)c(=O)n21 (stereo not drawn),–,"inconclusive: 29.1 µM [falling, partial curve, poor fit]"
C[C@@H]1CN([C@H](C)CO)C(=O)c2cc(NC(=O)Nc3ccc(C(F)(F)F)cc3)ccc2O[C@H]1CN(C)Cc1ccc(Cl)c(Cl)c1,–,"inconclusive: 20.6 µM [falling, single point]"
Cc1c(-c2ccccc2)c(-c2ccc(OCCN(C)C)cc2)n2ccccc12,–,"inconclusive: 20.6 µM [falling, partial curve]"
COc1ccc(NC(=O)CN(C)C(=O)c2ccccc2OCC(=O)Nc2cccc(C(F)(F)F)c2)cc1,inactive: 0.751%,–
O=C(O)Cc1sc(Nc2ccccc2Cl)nc1-c1ccccc1,inactive: -7.32%,–

SMILES,"activity change, negative = cytotoxicity",Potency
N#CC1=C(SCc2ccccc2)NC(=O)CC1c1ccc(O)cc1 (stereo not drawn),inactive: -1.38%,–
N#CC(c1ccc(Cl)cc1)c1nc2ccccc2nc1C(F)(F)F (stereo not drawn),–,"inconclusive: 25.9 µM [activator, partial curve, poor fit]"
Cc1cccc(NC(=O)CSCC(=O)Nc2cccc(S(=O)(=O)N3CCCCCC3)c2)c1,inactive: -6.64%,–
CC(C)Cn1c(N)c(C(=O)CSc2nc3ncc(Cl)cc3[nH]2)c(=O)n(C)c1=O,–,"inconclusive: 16.4 µM [falling, partial curve, poor fit]"
CCOc1ccc(-n2c(Cc3cc(=O)[nH]c(=O)[nH]3)nnc2SCC(N)=O)cc1,–,"inconclusive: 23.1 µM [activator, partial curve, poor fit]"
O=C(COc1ccc(Cl)cc1Cl)N1CCCN(C(=O)COc2ccc(Cl)cc2Cl)CC1,–,"inconclusive: 20.6 µM [falling, single point]"
CCOc1ccc(C(=O)Nc2ccc(NC(=O)c3ccco3)c(Cl)c2)cc1Cl,–,"inconclusive: 18.4 µM [falling, single point]"
CN=c1scc(-c2ccccc2F)n1/N=C(\C)c1cccnc1,–,"inconclusive: 29.1 µM [falling, partial curve, poor fit]"
CCN(C(=O)COC(=O)CCCOc1ccccc1)c1c(N)n(Cc2ccccc2)c(=O)[nH]c1=O,inactive: 14%,–
O=C(NC1CCCc2ccccc21)C1CCN(S(=O)(=O)N2CCCCCC2)CC1 (stereo not drawn),–,"inconclusive: 0.58 µM [falling, partial curve, poor fit]"
CCOc1ccc(-n2c(SCc3ccc([N+](=O)[O-])cc3)nnc2-c2ccccc2)cc1,–,"inconclusive: 32.6 µM [falling, partial curve, poor fit]"
N#C/C(=C/c1cn(CC(=O)O)c2ccccc12)C(=O)NCc1ccccc1,–,"inconclusive: 7.31 µM [falling, partial curve, poor fit]"
Cc1cc(C)cc(OCC(=O)N/N=C/c2ccc([N+](=O)[O-])o2)c1,–,"inconclusive: 23.1 µM [falling, single point]"
COc1ccc(-c2cc(=O)c3c(OC)c(OC)c(OC)c(OC)c3o2)cc1OC,–,"inconclusive: 5.17 µM [activator, full curve, poor fit]"
COc1cc2c(C(=O)N3CCOCC3)c(CSc3ccccc3)n(C)c2cc1Br,–,"inconclusive: 20.6 µM [falling, single point]"
CCOc1cc2[nH]c(=S)n(Cc3ccc(C)o3)c(=O)c2cc1OCC,–,"inconclusive: 23.1 µM [falling, partial curve, poor fit]"
FC(F)(F)c1nc(N2CCCC2)ncc1-c1nnnn1-c1ccccc1,–,"inconclusive: 20.6 µM [falling, partial curve, poor fit]"
Cc1ccccc1C(=O)/C(C#N)=N/Nc1c(C)n(C)n(-c2ccccc2)c1=O,–,active: 18.4 µM
CSCC[C@H](NC(=O)c1ccc(Cl)c(S(=O)(=O)N2CCCC2)c1)c1nc2ccccc2[nH]1,–,"inconclusive: 23.1 µM [falling, single point]"
CC(C)c1cc(=O)oc2c3c4c(cc12)CCCN4CCC3,–,"inconclusive: 20.6 µM [activator, partial curve]"
Cc1cc(C)c(S(=O)(=O)NC2CC3CCC2C3)c(C)c1 (stereo not drawn),–,"inconclusive: 20.6 µM [falling, partial curve, poor fit]"

# Record cards, as listed above. Order of values: activity change, negative = cytotoxicity	Potency
# COC(=O)C1C=CC(OC2OC(COC(C)=O)C(OC(C)=O)C(OC(C)=O)C2OC(C)=O)n2c(=O)n(-c3ccccc3)c(=O)n21 (stereo not drawn) in the list: –	inconclusive: 29.1 µM [falling, partial curve, poor fit]
# COc1ccc(C2(c3ccc(OC(C)=O)cc3OC(C)=O)CC(c3ccccc3)NC(=S)N2)cc1 (stereo not drawn) in the list: –	inconclusive: 16.4 µM [falling, single point]
# N#CC1=C(SCc2ccccc2)NC(=O)CC1c1ccc(O)cc1 (stereo not drawn) in the list: inactive: -1.38%	–
# CC(C)Cn1c(N)c(C(=O)CSc2nc3ncc(Cl)cc3[nH]2)c(=O)n(C)c1=O in the list: –	inconclusive: 16.4 µM [falling, partial curve, poor fit]

# The list continues:

SMILES,"activity change, negative = cytotoxicity",Potency
COc1ccc(NC(=O)Nc2c(O)ccc3ccccc23)cc1,–,"inconclusive: 25.9 µM [activator, partial curve, poor fit]"
Fc1cc2[nH]c(=S)[nH]c2c(Br)c1N1CCSCC1,inactive: 1.07%,–
Cc1cc(Cl)c(S(=O)(=O)N2CCSCC2)cc1OCC(=O)NC1CCCCC1,–,"inconclusive: 20.6 µM [falling, single point]"
COc1ccccc1C(=O)Nc1cc(-c2ccc(C)cc2)no1,–,"inconclusive: 16.4 µM [activator, partial curve, poor fit]"
CCc1nc2ccccc2c(=O)n1NC(=O)c1c(O)c2ccccc2n(CC)c1=O,–,"inconclusive: 23.1 µM [falling, single point]"
Cc1ccc2[nH]c(=O)c(CN(CCCN3CCOCC3)C(=O)NC3CCCCC3)cc2c1,inactive: 15.2%,–
COc1ccc(Cn2c(C)ccc2C)cc1,inactive: -12.7%,–
CCOC(=O)c1cnc2ccc(Cl)cc2c1NCCN(C)C,–,"inconclusive: 2.91 µM [activator, partial curve, poor fit]"
O=C(O)c1ccc(-c2ccc(/C=N/Nc3ccc([N+](=O)[O-])cc3)o2)cc1,–,"inconclusive: 18.4 µM [falling, partial curve, poor fit]"
COc1cccc(C2C(=O)N(C3CCCCC3)CC(=O)N2Cc2ccc(Cl)cc2)c1 (stereo not drawn),–,"inconclusive: 10.3 µM [activator, partial curve, poor fit]"
Cc1cc(NC(=O)N2CCC(CN3CCOCC3)CC2)ccc1Br,inactive: -6.24%,–
CCN(CC)S(=O)(=O)c1cccc(NC(=O)C2SC(=Nc3ccc(C)cc3C)C(C(=O)NC(C)COC)=C2N)c1 (stereo not drawn),–,"inconclusive: 18.4 µM [falling, single point]"
CC(C)CCNC(=O)c1cc2c(=O)n3ccccc3nc2s1,–,"inconclusive: 10.3 µM [activator, partial curve, poor fit]"
CC(C)[C@H](NS(=O)(=O)c1ccccc1)C(=O)OCC(=O)Nc1ccccc1Sc1ccccc1,inactive: 3.59%,–
Cc1ccc(C(C(=O)NC2CCCC2)N(C(=O)Cc2cccs2)c2cccc(C)c2C)o1 (stereo not drawn),–,"inconclusive: 23.1 µM [falling, single point]"
O=[N+]([O-])c1ccc(Sc2ncccn2)c([N+](=O)[O-])c1,–,"inconclusive: 23.1 µM [falling, partial curve, poor fit]"
COc1cc(-c2cn(S(=O)(=O)c3cccc4nsnc34)nc2N)cc(OC)c1OC,–,"inconclusive: 6.51 µM [activator, partial curve, poor fit]"
CC(=O)Nc1ccn(C2OC(C(COC(C)=O)NC(=O)C(Cc3ccccc3)NC(=O)OC(C)(C)C)C(OC(C)=O)C2OC(C)=O)c(=O)n1 (stereo not drawn),inactive: 1.5%,–
O=C(OCC#CCSc1nnc(-c2cccc3ccccc23)o1)c1cc(F)c(F)c(F)c1,inactive: -3.15%,–
Cc1sc2nc(CN(Cc3cccs3)C(=O)NC3CCCCC3)[nH]c(=O)c2c1C,–,"inconclusive: 16.4 µM [falling, partial curve, poor fit]"
CCc1ccc(NC(=O)CSc2nccn2C2CCCC2)cc1,inactive: 8.21%,–
